Data source: PubChem BioAssay AID1259308 (NCATS, 2017)

Purpose: 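Knock-downs that increase output of a recombinant reporter protein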 (primary screen)
Cell system: human HEK293 embryonic kidney cells stably expressing firefly luciferase (HEK-CMV-Luc2-Hygro)
Reagent: single siRNA against human genes, 0.8 pmol siRNA per well
Time to read-out: 72 h
Measurement: 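Reporter luminescence and viable-cell signal on separate replicate plates, given as percent of non-targeting control and median/MAD z-scores, plus per-cell luciferase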
Reading the numbers: total luciferase, z-score: higher = more reporter protein produced
Rule for the call: 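An siRNA counts as active if its total luciferase robust z-score exceeds 3; genes with two or more such siRNAs out of three were retested with fresh siRNAs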
Meaning of the calls: active = raised luciferase; inactive = no rise
The whole screen tested about 59,000 reagents; below is a part drawn at random. In the full data, about 1,510 (2.6%) got an active call. 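Calls use total luciferase alone and ignore viability, so some active siRNAs may act by altering cell number.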 Reagents against one gene are numbered here. Further read-outs or replicates are left out here.

PBX2 (PBX homeobox 2) #1: total luciferase, z-score = -0.0448; outcome = inactive
PBX2 (PBX homeobox 2) #2: total luciferase, z-score = -0.665; outcome = inactive
PBX2 (PBX homeobox 2) #3: total luciferase, z-score = -0.562; outcome = inactive
SHROOM4 (shroom family member 4) #1: total luciferase, z-score = 0.483; outcome = inactive
SHROOM4 (shroom family member 4) #2: total luciferase, z-score = 1.49; outcome = inactive
SHROOM4 (shroom family member 4) #3: total luciferase, z-score = -0.0903; outcome = inactive
GALNTL5 (polypeptide N-acetylgalactosaminyltransferase like 5) #1: total luciferase, z-score = 1.36; outcome = inactive
GALNTL5 (polypeptide N-acetylgalactosaminyltransferase like 5) #2: total luciferase, z-score = 0.0818; outcome = inactive
GALNTL5 (polypeptide N-acetylgalactosaminyltransferase like 5) #3: total luciferase, z-score = 0.162; outcome = inactive
ZNF540 (zinc finger protein 540) #1: total luciferase, z-score = -0.642; outcome = inactive
ZNF540 (zinc finger protein 540) #2: total luciferase, z-score = -0.876; outcome = inactive
ZNF540 (zinc finger protein 540) #3: total luciferase, z-score = -1.99; outcome = inactive
SUOX (sulfite oxidase) #1: total luciferase, z-score = 1.24; outcome = inactive
SUOX (sulfite oxidase) #2: total luciferase, z-score = 0.206; outcome = inactive
SUOX (sulfite oxidase) #3: total luciferase, z-score = 1.25; outcome = inactive
MICA (MHC class I polypeptide-related sequence A) #1: total luciferase, z-score = 0.0336; outcome = inactive
MICA (MHC class I polypeptide-related sequence A) #2: total luciferase, z-score = 0.778; outcome = inactive
MICA (MHC class I polypeptide-related sequence A) #3: total luciferase, z-score = -0.103; outcome = inactive
TOMM20 (translocase of outer mitochondrial membrane 20) #1: total luciferase, z-score = -0.289; outcome = inactive
TOMM20 (translocase of outer mitochondrial membrane 20) #2: total luciferase, z-score = 0.489; outcome = inactive
TOMM20 (translocase of outer mitochondrial membrane 20) #3: total luciferase, z-score = 0.58; outcome = inactive
CAGE1 (cancer antigen 1) #1: total luciferase, z-score = 0.819; outcome = inactive
CAGE1 (cancer antigen 1) #2: total luciferase, z-score = -0.583; outcome = inactive
CAGE1 (cancer antigen 1) #3: total luciferase, z-score = 0.184; outcome = inactive

Looked up above.
Under “outcome”, TOMM20 (translocase of outer mitochondrial membrane 20) #3 reads inactive
Under “outcome”, SHROOM4 (shroom family member 4) #3 is entered as inactive
Entry for SUOX (sulfite oxidase) #2 under “total luciferase, z-score”: 0.206
Under “total luciferase, z-score”, MICA (MHC class I polypeptide-related sequence A) #2 shows 0.778
Result of CAGE1 (cancer antigen 1) #2 in “outcome”: inactive
Entry of GALNTL5 (polypeptide N-acetylgalactosaminyltransferase like 5) #3 under “total luciferase, z-score”: 0.162

Continued:
FLNB (filamin B) #1: total luciferase, z-score = -0.0463; outcome = inactive
FLNB (filamin B) #2: total luciferase, z-score = 0.00498; outcome = inactive
FLNB (filamin B) #3: total luciferase, z-score = -0.253; outcome = inactive
FYCO1 (FYVE and coiled-coil domain autophagy adaptor 1) #1: total luciferase, z-score = 0.767; outcome = inactive
FYCO1 (FYVE and coiled-coil domain autophagy adaptor 1) #2: total luciferase, z-score = 1.41; outcome = inactive
FYCO1 (FYVE and coiled-coil domain autophagy adaptor 1) #3: total luciferase, z-score = 0.253; outcome = inactive
ZNF219 (zinc finger protein 219) #1: total luciferase, z-score = 0.593; outcome = inactive
ZNF219 (zinc finger protein 219) #2: total luciferase, z-score = -1.28; outcome = inactive
ZNF219 (zinc finger protein 219) #3: total luciferase, z-score = 1.49; outcome = inactive
APOL5 (apolipoprotein L5) #1: total luciferase, z-score = -0.879; outcome = inactive
APOL5 (apolipoprotein L5) #2: total luciferase, z-score = 0.878; outcome = inactive
APOL5 (apolipoprotein L5) #3: total luciferase, z-score = 2.56; outcome = inactive
CRYBA1 (crystallin beta A1) #1: total luciferase, z-score = 4.23; outcome = active
CRYBA1 (crystallin beta A1) #2: total luciferase, z-score = 1.14; outcome = inactive
CRYBA1 (crystallin beta A1) #3: total luciferase, z-score = 0.472; outcome = inactive
HSD17B3 (hydroxysteroid 17-beta dehydrogenase 3) #1: total luciferase, z-score = 0.74; outcome = inactive
HSD17B3 (hydroxysteroid 17-beta dehydrogenase 3) #2: total luciferase, z-score = -0.455; outcome = inactive
HSD17B3 (hydroxysteroid 17-beta dehydrogenase 3) #3: total luciferase, z-score = 1.33; outcome = inactive
